{
  "source": "patent US10052304B2",
  "about": "“Compositions and methods for cancer therapy” (UNIVERSITY OF IOWA RESEARCH FOUNDATION, priority 2015, dated 2018)",
  "origin": "cited, not measured here",
  "tested_on": "GBM subjects",
  "settings": "radiation + temozolomide, Stupp et al. (2005); cited from earlier work",
  "note": "At least one compound was matched to its structure with a doubt left.",
  "data": [
    {"smiles": "Cn1nnc2c(C(N)=O)ncn2c1=O", "note": "[temozolomide]", "values": [
      {"measurement": "historical median OS", "value": 14, "unit": "months"},
      {"measurement": "historical median PFS", "value": 7, "unit": "months"}
    ]}
  ]
}
